Library screen at single concentrations

Chains of the proteins cited; added tags and fusions are not shown. Residues count along the entry.
UniProt Q8IDJ8, 1-583: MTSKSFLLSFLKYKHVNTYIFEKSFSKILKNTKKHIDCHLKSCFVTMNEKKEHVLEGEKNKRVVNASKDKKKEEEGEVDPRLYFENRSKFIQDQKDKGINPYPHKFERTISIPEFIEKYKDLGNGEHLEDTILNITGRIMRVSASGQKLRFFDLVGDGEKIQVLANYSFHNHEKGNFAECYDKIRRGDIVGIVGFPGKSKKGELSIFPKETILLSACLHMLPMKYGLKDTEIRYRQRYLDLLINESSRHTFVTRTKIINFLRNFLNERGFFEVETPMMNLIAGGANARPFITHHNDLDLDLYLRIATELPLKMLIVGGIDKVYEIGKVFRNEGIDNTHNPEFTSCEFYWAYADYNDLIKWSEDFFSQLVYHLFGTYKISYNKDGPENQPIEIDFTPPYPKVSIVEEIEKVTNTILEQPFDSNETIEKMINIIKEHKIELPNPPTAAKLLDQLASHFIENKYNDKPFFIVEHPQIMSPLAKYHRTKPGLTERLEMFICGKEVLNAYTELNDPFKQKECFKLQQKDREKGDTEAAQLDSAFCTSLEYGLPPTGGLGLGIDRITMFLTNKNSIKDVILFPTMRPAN

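Lysine-tRNA ligase, Plasmodium falciparum 3D7 (UniProt Q8IDJ8). Enzyme assay of the cytosolic lysyl-tRNA synthetase in 384-well plates, read by luminescence. Concentration: 30 µM. Higher reads as stronger inhibition, judged from the few compounds that gave an IC50. About 69,000 compounds were tested under these conditions; 0.071% (about 49) showed 50% or more at least once.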

Values are the deposited “Percent Effect”, in %.
The record does not define 0% and 100%; most values in the screen are far below 50% and negative numbers occur (in some assays of this library far below -100).
This is an unselected part of the compounds tested.

| Compound | Percent Effect |
|---|---|
| `CO[C@H]1CCN(Cc2ccoc2)C[C@@H]1Cc1ccccc1` | 1.294% |
| `O=C1CCSCC(C(=O)N2CCN(C3CCCCC3)CC2)N1` (stereo not given) | -4.926% |
| `CCCc1cc(NC2CCc3ncnn3C2)n2ncnc2n1` (stereo not given) | 6.642% |
| `Cc1ccc(N2CCc3ncnc(C)c3CC2)nn1` | 0.1937% |
| `CCOCCNC(=O)Nc1ccc(OCc2noc(C3CC3)n2)cc1` | 6.575% |
| `Cc1cc(CN2Cc3ccccc3CC2c2nnc(C)o2)no1` (stereo not given) | -0.9076% |
| `CCOCC1CN(C)Cc2cnn(CC3CCCC3)c21` (stereo not given) | -0.1715% |
| `CC(=O)N1CCc2nc(C3CCN(c4ncccn4)C3)ncc2C1` (stereo not given) | 0.6068% |
| `CCS(=O)(=O)N[C@@H]1CN(Cc2cc(C)on2)C[C@@H]2CCCO[C@@H]21` | 3.19% |
| `Cc1cc(NC(C)C(=O)N2CCN(c3ncccn3)CC2)ccc1F` (stereo not given) | -0.04925% |
| `CCc1nccn1CC(=O)N1C[C@H]2CC[C@@H]1CN(C(=O)N(C)C)C2` | 6.363% |
| `O=C(CCc1ccsc1)N1CCC(N2CCNC2=O)CC1` | 0.7315% |
| `Cc1cc(C)cc(CN2CCCC2c2noc(C)n2)c1` (stereo not given) | 4.252% |
| `O=C(CNC(=O)c1ccccc1I)NCc1ccccc1F` | 4.436% |
| `Cc1cc(S(=O)(=O)NCc2cccc(C(=O)N3CCCC3)c2)c(C)s1` | 4.421% |
| `CC(Oc1ccccc1C(F)(F)F)C(=O)NS(=O)(=O)C(C)C` (stereo not given) | 6.081% |
| `Cc1nccc(N2CCC(=O)N(CC3CC3)C(C(C)C)C2)n1` (stereo not given) | -1.606% |
| `CN1CCN(C(=O)c2cccc(S(=O)(=O)NCC3(C)COC3)c2)CC1` | 3.095% |
| `O=C(c1cccnc1O)N(CCO)Cc1cc(Br)ccc1F` | 0.9912% |
| `c1cnn(CC2CCCCN2Cc2cn3ccsc3n2)c1` (stereo not given) | -1.547% |
| `Cc1ccc(S(=O)(=O)N2CCN(C)c3ccncc32)cc1F` | 4.278% |
| `O=C(CO[C@@H]1CC[C@H]2[C@H]1OCCN2c1ncccn1)N1CCCC1` | 0.5333% |
| `CCn1ncnc1CN1CCc2[nH]cnc2C1c1ccccn1` (stereo not given) | -1.414% |
| `CCCNC(=O)c1[nH]nc(C2CC2)c1Br` | 4.831% |
| `Cc1ncn(CCNC(=O)Nc2ccc(OC(F)(F)F)cc2)c(=O)c1C` | 5.168% |
| `CNc1cccc(CC2COCCN(C(=O)c3cnn(C)c3)C2)n1` (stereo not given) | 1.239% |
| `CCc1ccc2nc(C)cc(C(=O)NC[C@@H]3CCNC[C@H]3O)c2c1` | -0.2079% |
| `O=C1CCCCN1Cc1cccc(NC(=O)N2CCSCC2)c1` | 2.263% |
| `CC(=O)N[C@@H]1CN(C(=O)c2ccc[nH]2)C[C@H]1c1ccc(C)o1` | 0.7602% |
| `CN(CC1CCCCC1)C(=O)c1cn(C)nc1-c1cccnc1` | 7.709% |
| `CCN1C(=O)CC[C@]12CC[C@@H](NC(=O)c1cc(C)on1)CC2` | 4.153% |
| `Cc1ccc(C(=O)NCC(C)Cn2ccnc2C)c(=O)[nH]1` (stereo not given) | 5.766% |
| `CN(C)S(=O)(=O)c1ccc(=O)n(CC2CCCCO2)c1` (stereo not given) | 6.7% |
| `COCCC(=O)N1CC2(CCN(c3ccccc3)C2)C1` | 0.88% |
| `Cc1csc(CNC(=O)N(C)Cc2nnc3n2CCC3)n1` | 7.969% |
| `CCCS(=O)(=O)C(C)C(=O)Nc1ccc2oc(C3CC3)nc2c1` (stereo not given) | 2.068% |
| `Cc1noc(C)c1C(=O)NCC(c1ccsc1)N(C)C` (stereo not given) | 1.246% |
| `Cn1nc2c(cc1=O)CN(Cc1ccc(-n3cccn3)cc1)CC2` | 4.644% |
| `O=C(Nc1ccccc1)[C@H]1C[C@@H]2CN(S(=O)(=O)C3CC3)C[C@H]1O2` | -0.9081% |
| `CN1CCN(Cc2cn3c(n2)CN(C(=O)c2ccccn2)CC3)CC1` | 5.876% |
| `CS(=O)(=O)N[C@@H]1CCN(Cc2nccs2)[C@H]1Cc1ccncc1` | 2.817% |
| `O=C(Nc1ccccc1-c1ccccc1)NC1CCC2(C1)OCCO2` (stereo not given) | -1.609% |
| `O=C(Nc1ccc(F)cc1)N1CCN(Cc2noc(C3CC3)n2)CC1` | 0.3969% |
| `CCc1nnsc1C(=O)NCCn1nc2ccccn2c1=O` | 2.018% |
| `N#Cc1ccc(N2CCC3(CC2)CC(OCc2cccnc2)CO3)cc1` (stereo not given) | 2.987% |
| `Cc1noc(C)c1C(=O)N1CCCN(Cc2nccn2C(C)C)CC1` | -0.5287% |
| `CCc1cnc(CN2CCC(N(C)Cc3noc(C4CC4)n3)C2)o1` (stereo not given) | -13.05% |
| `c1cncc(-c2nnc([C@H]3CCN(CC4CCCCC4)C3)o2)c1` | 3.315% |
| `NCCC(=O)N1CCC2(CC1)CN(C(=O)Cc1cccc(Cl)c1)CCO2` | 5.392% |
| `CN(C)C(=O)c1cnc2n1CCN(Cc1cccc(C#N)c1)C2` | 5.038% |
| `Cc1nn(C)c2cn(CC(=O)N3CCN(c4ccccc4)CC3)nc12` | 3.752% |
| `CCCS(=O)(=O)NC1CCc2c(ccc(=O)n2CC2CC2)C1` (stereo not given) | 4.289% |
| `Cc1ccsc1CN(C)C(=O)c1ccc(N2CCOCC2)c(F)c1` | 0.871% |
| `O=C(CCC1CCCC1)NCc1nnc2ccccn12` | 0.3939% |
| `CC(O)CN1CCc2onc(C(c3ccccc3)c3ccccc3)c2C1` (stereo not given) | 2.792% |
| `Cc1cccc(CNCc2c(C(C)C)nn(C)c2N2CCOCC2)n1` | 7.5% |
| `CC(C)c1cc(N2CCC(NS(C)(=O)=O)CC2)n2nccc2n1` | 9.41% |
| `CC1=N[C@@]2(CC[C@@H]3CN(Cc4ccccc4C)C[C@@H]32)C(=O)N1CC1CC1` | -0.231% |

Once more, the final 4:

Compound	Percent Effect
CC(O)CN1CCc2onc(C(c3ccccc3)c3ccccc3)c2C1 (stereo not given)	2.792%
Cc1cccc(CNCc2c(C(C)C)nn(C)c2N2CCOCC2)n1	7.5%
CC(C)c1cc(N2CCC(NS(C)(=O)=O)CC2)n2nccc2n1	9.41%
CC1=N[C@@]2(CC[C@@H]3CN(Cc4ccccc4C)C[C@@H]32)C(=O)N1CC1CC1	-0.231%

Data taken from ChEMBL document CHEMBL3988442, “University of Dundee, Small-Polar-MMV Screening Library” (2021).